Results on one molecule are retold here after patent US20230257458A1.

The chains behind the UniProt entries cited, without tags or fusion partners. Residues count along the entry.
UniProt P20809, residues 22-199: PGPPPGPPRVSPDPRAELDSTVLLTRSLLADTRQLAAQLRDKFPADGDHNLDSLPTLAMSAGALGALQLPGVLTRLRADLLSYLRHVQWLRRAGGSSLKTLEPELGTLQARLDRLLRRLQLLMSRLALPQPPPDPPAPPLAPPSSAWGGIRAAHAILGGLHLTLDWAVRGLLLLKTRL

No constants are given. Whether binding was seen depends on the method and setting. Some results given as binding are weak or reduced against the parent protein; the word gives no strength.

The target of this assay is recombinant IL-11 (LSBio, LS-G132887-10) (UniProt P20809). Put plainly: ELISA, cytokine coated. On the technique in general: ELISA stands for enzyme-linked immunosorbent assay.

B1: 3-6A4 (antibody, human IgG1, kappa, V domains shown)
VH: QIQLVQSGPELKKPGETVKISCKASGYTFTTNGINWVKQAAGKGLKWMGWINTNTGEPTNAEELKGRFAFSLETSASTAYLQINNLKNEDAAIYFCAREGAFGLDYWGQGTSVTVSS
VL: SIVMTQSPKFLLVSAGDRVIITCKASQSVSNDVVWYQQKPGQSPKLLIYYGSHRNTGVPTRFTGSGYGTDFTFTISTVQAEDLAVYFCQQDFFSPWTFGGGTKLEIKR
Consider B1, for which the binding entry is listed as “binds”.
